Measurements from the supplement of paper PMC10849652.
The other results are listed elsewhere or left out.

Sequences of proteins named here, by UniProt entry; tags and fusion partners are left off. A change or cut given only in a name is not applied to a line headed by its entry.
UniProt Q9NXN4: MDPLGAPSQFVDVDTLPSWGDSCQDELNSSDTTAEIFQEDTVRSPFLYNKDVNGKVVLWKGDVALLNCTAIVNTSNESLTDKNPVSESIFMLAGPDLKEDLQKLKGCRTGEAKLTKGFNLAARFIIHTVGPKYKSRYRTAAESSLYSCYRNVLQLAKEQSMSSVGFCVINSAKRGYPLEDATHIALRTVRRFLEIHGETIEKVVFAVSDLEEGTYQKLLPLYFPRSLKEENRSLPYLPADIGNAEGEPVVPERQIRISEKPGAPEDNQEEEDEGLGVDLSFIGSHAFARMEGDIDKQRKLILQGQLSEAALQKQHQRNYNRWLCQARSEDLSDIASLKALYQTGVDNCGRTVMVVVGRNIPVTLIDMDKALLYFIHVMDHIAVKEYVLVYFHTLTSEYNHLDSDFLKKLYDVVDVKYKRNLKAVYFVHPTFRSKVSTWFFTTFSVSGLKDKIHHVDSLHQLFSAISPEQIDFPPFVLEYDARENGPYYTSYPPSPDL
UniProt Q3B7J2: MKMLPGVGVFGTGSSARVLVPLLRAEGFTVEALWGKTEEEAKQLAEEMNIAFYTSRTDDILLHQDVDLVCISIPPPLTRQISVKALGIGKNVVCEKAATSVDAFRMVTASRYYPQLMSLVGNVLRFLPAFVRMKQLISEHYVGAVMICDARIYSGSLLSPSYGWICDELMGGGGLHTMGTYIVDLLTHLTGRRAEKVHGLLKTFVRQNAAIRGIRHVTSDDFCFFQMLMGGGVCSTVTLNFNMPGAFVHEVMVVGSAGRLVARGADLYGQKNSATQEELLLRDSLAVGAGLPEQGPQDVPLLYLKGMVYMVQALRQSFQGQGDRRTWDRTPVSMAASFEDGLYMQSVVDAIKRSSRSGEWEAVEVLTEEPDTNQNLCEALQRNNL
UniProt O95166, whole entry, looked up: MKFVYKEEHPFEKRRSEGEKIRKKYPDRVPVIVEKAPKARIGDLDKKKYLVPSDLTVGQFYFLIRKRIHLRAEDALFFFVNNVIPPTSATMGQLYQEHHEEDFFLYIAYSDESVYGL
UniProt Q969S9: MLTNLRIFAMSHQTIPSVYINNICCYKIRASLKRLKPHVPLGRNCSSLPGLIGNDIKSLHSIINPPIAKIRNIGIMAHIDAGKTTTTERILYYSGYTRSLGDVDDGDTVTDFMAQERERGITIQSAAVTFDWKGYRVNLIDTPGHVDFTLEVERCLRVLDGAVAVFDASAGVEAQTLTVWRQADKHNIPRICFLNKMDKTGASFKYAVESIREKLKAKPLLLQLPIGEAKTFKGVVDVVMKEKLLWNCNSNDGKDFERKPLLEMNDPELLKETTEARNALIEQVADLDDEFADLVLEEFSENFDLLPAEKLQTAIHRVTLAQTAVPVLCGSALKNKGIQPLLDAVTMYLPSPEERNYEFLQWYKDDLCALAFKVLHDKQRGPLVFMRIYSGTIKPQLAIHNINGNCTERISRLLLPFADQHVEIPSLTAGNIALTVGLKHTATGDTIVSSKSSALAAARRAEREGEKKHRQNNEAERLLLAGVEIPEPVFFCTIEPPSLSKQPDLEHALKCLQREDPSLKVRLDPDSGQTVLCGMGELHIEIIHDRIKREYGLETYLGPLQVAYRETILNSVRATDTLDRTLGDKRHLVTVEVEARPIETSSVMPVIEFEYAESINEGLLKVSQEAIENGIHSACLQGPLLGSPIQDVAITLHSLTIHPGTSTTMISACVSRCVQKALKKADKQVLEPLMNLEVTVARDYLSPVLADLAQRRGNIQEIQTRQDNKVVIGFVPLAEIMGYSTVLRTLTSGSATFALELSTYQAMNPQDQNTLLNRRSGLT
UniProt Q8TB36: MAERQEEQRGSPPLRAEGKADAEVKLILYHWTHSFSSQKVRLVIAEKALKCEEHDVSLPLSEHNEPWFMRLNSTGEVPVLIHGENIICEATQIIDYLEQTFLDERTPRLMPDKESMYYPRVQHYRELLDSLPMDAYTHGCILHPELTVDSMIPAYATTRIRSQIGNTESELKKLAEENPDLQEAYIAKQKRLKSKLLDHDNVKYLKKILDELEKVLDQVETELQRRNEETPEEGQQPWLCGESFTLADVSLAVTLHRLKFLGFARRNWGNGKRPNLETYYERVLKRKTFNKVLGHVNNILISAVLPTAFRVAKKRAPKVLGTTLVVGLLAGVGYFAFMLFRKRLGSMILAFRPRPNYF
UniProt Q8IVH2: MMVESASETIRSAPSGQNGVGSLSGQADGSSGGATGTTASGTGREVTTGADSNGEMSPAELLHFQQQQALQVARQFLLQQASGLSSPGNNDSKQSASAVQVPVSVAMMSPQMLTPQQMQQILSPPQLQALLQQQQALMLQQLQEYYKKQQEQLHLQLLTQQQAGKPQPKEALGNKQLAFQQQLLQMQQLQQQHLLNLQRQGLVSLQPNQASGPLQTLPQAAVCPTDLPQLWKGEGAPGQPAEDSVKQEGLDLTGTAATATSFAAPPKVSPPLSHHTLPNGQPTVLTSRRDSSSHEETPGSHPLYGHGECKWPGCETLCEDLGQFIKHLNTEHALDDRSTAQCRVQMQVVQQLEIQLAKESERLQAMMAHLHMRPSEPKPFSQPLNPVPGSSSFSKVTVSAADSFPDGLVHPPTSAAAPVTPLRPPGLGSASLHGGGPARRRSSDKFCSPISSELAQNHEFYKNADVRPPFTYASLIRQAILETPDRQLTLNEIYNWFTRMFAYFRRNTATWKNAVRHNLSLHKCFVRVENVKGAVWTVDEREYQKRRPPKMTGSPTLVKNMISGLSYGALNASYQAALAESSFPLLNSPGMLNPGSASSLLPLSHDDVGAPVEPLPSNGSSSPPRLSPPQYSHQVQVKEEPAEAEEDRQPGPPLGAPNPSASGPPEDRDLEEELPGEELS
UniProt Q13467, whole entry, looked up: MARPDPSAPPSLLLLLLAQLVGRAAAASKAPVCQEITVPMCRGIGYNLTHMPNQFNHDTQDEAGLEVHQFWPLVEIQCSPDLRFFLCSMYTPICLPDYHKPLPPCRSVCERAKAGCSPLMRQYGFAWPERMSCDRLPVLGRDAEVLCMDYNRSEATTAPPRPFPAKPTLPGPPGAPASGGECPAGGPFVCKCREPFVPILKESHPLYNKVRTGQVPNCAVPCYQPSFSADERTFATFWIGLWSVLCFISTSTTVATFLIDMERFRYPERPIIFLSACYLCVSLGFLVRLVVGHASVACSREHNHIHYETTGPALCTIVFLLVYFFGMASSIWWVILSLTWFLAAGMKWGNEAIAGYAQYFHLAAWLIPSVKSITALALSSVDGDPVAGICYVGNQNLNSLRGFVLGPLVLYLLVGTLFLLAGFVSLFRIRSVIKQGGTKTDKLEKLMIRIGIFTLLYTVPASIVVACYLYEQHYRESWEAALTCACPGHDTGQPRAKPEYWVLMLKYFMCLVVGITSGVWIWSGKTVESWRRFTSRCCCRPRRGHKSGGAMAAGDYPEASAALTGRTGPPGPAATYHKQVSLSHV
UniProt Q14376: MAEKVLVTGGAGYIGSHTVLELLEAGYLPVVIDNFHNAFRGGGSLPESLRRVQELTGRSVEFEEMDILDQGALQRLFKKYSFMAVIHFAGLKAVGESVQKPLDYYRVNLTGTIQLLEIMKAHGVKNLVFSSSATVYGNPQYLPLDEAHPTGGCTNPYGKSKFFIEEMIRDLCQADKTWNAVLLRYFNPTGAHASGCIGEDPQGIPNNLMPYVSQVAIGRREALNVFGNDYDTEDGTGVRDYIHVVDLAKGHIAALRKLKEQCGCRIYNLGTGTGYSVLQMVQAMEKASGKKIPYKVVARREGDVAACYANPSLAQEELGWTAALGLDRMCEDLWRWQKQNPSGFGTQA
UniProt P51114, whole entry, looked up: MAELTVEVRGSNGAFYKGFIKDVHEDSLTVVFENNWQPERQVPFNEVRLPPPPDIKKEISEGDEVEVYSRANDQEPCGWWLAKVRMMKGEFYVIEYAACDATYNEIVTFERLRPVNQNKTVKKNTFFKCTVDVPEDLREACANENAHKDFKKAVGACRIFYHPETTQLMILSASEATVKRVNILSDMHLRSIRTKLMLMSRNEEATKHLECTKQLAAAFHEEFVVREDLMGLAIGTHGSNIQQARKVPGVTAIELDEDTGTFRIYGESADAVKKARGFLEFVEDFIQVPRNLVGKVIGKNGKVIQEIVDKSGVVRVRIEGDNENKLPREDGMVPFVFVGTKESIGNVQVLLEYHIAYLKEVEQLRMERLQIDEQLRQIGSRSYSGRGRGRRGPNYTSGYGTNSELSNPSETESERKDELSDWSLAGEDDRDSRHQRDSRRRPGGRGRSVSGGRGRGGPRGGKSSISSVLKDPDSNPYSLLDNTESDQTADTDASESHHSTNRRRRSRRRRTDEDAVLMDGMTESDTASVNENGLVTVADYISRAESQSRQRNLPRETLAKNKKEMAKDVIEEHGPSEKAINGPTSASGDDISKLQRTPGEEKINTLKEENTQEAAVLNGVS
UniProt Q92837: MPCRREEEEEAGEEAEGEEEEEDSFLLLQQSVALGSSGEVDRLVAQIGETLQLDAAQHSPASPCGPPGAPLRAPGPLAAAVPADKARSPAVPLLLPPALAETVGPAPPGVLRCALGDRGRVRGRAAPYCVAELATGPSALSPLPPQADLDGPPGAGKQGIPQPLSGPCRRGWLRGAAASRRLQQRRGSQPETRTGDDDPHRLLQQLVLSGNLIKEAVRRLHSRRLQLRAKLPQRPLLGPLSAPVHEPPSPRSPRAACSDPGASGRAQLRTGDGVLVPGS
UniProt Q99988: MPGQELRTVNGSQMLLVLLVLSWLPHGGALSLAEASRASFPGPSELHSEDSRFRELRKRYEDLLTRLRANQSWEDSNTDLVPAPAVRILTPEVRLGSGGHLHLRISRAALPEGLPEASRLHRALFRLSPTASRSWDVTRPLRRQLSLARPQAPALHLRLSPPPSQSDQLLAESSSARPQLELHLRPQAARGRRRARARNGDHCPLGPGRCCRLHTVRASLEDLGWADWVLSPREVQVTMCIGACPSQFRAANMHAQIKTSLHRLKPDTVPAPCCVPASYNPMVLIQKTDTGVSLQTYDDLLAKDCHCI
UniProt Q9H840: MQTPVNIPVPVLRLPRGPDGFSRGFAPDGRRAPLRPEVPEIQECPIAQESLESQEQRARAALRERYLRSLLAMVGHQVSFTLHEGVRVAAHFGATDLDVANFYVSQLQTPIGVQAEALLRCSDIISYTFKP
UniProt Q05932: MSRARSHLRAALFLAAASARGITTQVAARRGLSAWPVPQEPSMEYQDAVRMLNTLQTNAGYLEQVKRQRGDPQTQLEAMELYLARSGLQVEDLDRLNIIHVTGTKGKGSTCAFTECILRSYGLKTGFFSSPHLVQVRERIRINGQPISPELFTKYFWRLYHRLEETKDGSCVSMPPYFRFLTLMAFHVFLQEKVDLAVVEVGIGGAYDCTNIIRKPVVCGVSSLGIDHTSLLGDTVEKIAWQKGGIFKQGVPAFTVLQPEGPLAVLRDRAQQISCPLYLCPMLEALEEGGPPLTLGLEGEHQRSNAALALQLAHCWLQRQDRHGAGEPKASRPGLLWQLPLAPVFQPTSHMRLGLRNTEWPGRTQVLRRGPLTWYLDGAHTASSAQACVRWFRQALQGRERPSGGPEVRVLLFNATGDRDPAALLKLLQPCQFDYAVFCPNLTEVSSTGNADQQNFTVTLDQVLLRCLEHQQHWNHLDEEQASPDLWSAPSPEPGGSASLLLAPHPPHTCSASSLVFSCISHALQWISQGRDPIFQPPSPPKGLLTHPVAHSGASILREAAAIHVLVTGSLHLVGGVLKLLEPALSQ
UniProt Q8TAK5: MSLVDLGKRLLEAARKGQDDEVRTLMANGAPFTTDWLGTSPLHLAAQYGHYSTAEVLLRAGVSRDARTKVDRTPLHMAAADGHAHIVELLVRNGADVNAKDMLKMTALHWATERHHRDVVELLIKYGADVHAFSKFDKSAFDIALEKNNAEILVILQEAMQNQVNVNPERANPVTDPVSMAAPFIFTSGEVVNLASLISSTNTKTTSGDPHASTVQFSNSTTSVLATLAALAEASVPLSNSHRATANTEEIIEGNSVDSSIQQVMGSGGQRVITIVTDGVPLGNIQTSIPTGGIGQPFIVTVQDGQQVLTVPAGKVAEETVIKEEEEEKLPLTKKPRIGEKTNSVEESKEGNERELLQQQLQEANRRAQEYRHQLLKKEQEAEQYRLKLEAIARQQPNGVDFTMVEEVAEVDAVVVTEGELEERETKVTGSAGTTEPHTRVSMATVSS
UniProt P02774: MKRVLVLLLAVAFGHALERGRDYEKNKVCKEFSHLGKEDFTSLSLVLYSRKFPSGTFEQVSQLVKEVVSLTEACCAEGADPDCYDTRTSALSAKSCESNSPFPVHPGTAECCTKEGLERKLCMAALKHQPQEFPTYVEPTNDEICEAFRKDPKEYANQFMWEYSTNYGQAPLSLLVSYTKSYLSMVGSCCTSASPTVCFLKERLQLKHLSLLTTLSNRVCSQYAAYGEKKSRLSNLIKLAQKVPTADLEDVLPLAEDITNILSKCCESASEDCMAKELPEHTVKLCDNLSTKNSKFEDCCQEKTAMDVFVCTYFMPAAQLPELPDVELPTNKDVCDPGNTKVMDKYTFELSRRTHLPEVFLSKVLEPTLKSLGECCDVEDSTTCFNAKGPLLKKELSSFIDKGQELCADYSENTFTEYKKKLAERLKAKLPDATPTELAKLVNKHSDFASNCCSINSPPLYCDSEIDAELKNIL

Columns and labels:
Assay in all cases: log2 fold change, soluble protein after heating vs DMSO (PISA); higher = thermal stabilisation; K562 lysate, 10 uM; active = over 0.2 and 3.5 SD of the protein, either way, in both replicates (recomputed)
[1] = compound: C1=CC=C(C=C1)[C@H](COC2=CC3=C(C=C2)NC(=O)N3)NC(=O)C4=CC=CN(C4=O)CC5=CC(=C(C=C5)F)F
Outline: (§1)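 The values are log-two fold changes in thermal stability compared with solvent controls and come from duplicates. They were obtained by TMTpro 16plex LC-MS/MS, with channel sums equalised, on the supernatant after 21,000xg for 90 min. That supernatant came from crude K562 extract at 1 mg/mL protein treated with 10 μM compound for 30 min, heated for 3 min across 48°C-58°C, pooled and brought to 0.5% NP-40 at 4°C.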

[2] = compound: CC1=C(SC2=C1C(=N[C@H](C3=NN=C(N32)C)CC(=O)N)C4=CC=C(C=C4)Cl)C
Outline: as §1

[3] = compound: CC1=C2C(=CC=C1)N=C(N(C2=O)C3=CC=CC=C3C)CN4C=NC5=C(N=CN=C54)N
Outline: as §1

[4] = compound: Cc1sc2c(c1C)C(c1ccc(Cl)cc1)=N[C@@H](CC(=O)OC(C)(C)C)c1nnc(C)n1-2
Outline: as §1

[5] = compound: c1ccc([C@@H]2C[C@H]2NC2CCNCC2)cc1
Outline: as §1

Measured: log2 fold change

GGA1 isoform 6 (UniProt Q9UJY5)
inactive: [1] 0.006 | [2] 0.006 | [3] 0.016 | [4] -0.012 | [5] 0.026

GALC (UniProt P54803)
inactive: [1] -0.009 | [2] -0.021 | [3] 0.018 | [4] -0.025 | [5] -0.05

GEMIN4 (UniProt P57678)
inactive: [1] -0.036 | [2] -0.015 | [3] -0.014 | [4] 0.04 | [5] 0.041

GDAP2 (UniProt Q9NXN4)
inactive: [1] -0.031 | [2] -0.021 | [3] 0.008 | [4] 0.084 | [5] 0.047

GALNT5 (UniProt Q7Z7M9)
inactive: [1] 0.025 | [2] -0.007 | [3] 0.032 | [4] 0.026 | [5] -0.008

GEMIN8 (UniProt Q9NWZ8)
inactive: [1] -0.023 | [2] 0.01 | [3] -0.113 | [5] 0.063

GABARAPL1 isoform 2 (UniProt Q9H0R8)
inactive: [1] 0.045 | [2] 0.064 | [3] 0.005 | [4] -0.054 | [5] 0.031

GCC2 (UniProt Q8IWJ2)
inactive: [1] 0.04 | [2] -0.032 | [3] 0 | [4] -0.023 | [5] -0.033

GFOD2 (UniProt Q3B7J2)
inactive: [1] 0.081 | [2] 0.022 | [3] 0.06 | [4] -0.168 | [5] 0.002

GATD1 (UniProt Q8NB37)
inactive: [1] -0.04 | [2] -0.008 | [3] 0.06 | [4] 0.032 | [5] -0.023

GANAB isoform 2 (UniProt Q14697)
inactive: [1] 0.008 | [2] 0 | [3] 0.01 | [4] 0.008 | [5] 0.018

GABARAP (UniProt O95166)
inactive: [1] -0.043 | [2] 0.056 | [3] 0.2 | [4] 0.001 | [5] -0.03

GEMIN5 (UniProt Q8TEQ6)
inactive: [1] -0.015 | [2] 0.025 | [3] 0.016 | [4] -0.002 | [5] 0.036

GEMIN2 (UniProt O14893)
inactive: [1] -0.009 | [2] 0.01 | [3] -0.023 | [4] 0.015 | [5] -0.043

GCAT isoform 2 (UniProt O75600)
inactive: [1] 0.073 | [2] 0.017 | [3] -0.009 | [4] -0.028 | [5] -0.023

GFM2 (UniProt Q969S9)
inactive: [1] 0.136 | [2] -0.038 | [3] 0.016 | [4] -0.013 | [5] 0.067

FUCA2 (UniProt Q9BTY2)
inactive: [1] 0.037 | [2] -0.019 | [3] -0.005 | [4] -0.047 | [5] -0.117

GCC1 (UniProt Q96CN9)
inactive: [1] -0.047 | [2] -0.011 | [3] 0.093 | [4] -0.046 | [5] 0.021

GDAP1 (UniProt Q8TB36)
inactive: [1] -0.033 | [2] 0.032 | [3] 0.026 | [4] 0.047 | [5] 0.09

GAGE12F (UniProt P0CL80)
inactive: [1] -0.083 | [2] -0.027 | [3] -0.021 | [4] -0.048 | [5] 0.116

FOXP4 (UniProt Q8IVH2)
inactive: [1] 0.092 | [2] 0.064 | [3] -0.171 | [4] 0.149 | [5] 0.009

GALT (UniProt P07902)
inactive: [1] 0.052 | [2] -0.104 | [3] 0.007 | [4] 0.039 | [5] -0.059

FZD5 (UniProt Q13467)
inactive: [1] 0.001 | [2] -0.119 | [4] 0.048 | [5] 0.442

GALE (UniProt Q14376)
inactive: [1] -0.004 | [2] -0.043 | [3] 0.001 | [4] 0.014 | [5] 0.023

GALNT7 (UniProt Q86SF2)
inactive: [1] 0.035 | [2] -0.013 | [3] 0.039 | [4] 0.01 | [5] 0.066

FXR1 (UniProt P51114)
inactive: [1] -0.028 | [2] -0.016 | [3] -0.009 | [4] 0.04 | [5] 0.027

GAA (UniProt P10253)
inactive: [1] -0.001 | [2] -0.077 | [3] -0.157 | [5] -0.024

GAGE2A (UniProt Q6NT46)
inactive: [1] -0.03 | [2] 0.021 | [3] -0.093 | [4] 0.01 | [5] 0.038

GAPDH (UniProt P04406)
inactive: [1] 0.004 | [2] 0.008 | [3] -0.018 | [4] 0.008 | [5] 0.052

GATA1 (UniProt P15976)
inactive: [1] -0.064 | [2] -0.037 | [4] 0.015 | [5] -0.115

FOXL2 (UniProt P58012)
inactive: [1] 0.135 | [2] 0.129 | [4] 0.166

GALM (UniProt Q96C23)
inactive: [1] 0.077 | [2] -0.037 | [3] 0.077 | [4] -0.024 | [5] -0.028

FXR2 (UniProt P51116)
inactive: [1] -0.021 | [2] -0.011 | [3] 0.032 | [4] -0.014 | [5] 0.054

GBA (UniProt P04062)
inactive: [1] 0.015 | [2] 0.018 | [3] 0.051 | [4] 0.042 | [5] -0.033

GALNT6 (UniProt Q8NCL4)
inactive: [1] 0.041 | [2] 0.001 | [3] -0.052 | [4] -0.128 | [5] -0.105

GCSH (UniProt P23434)
inactive: [1] -0.036 | [2] -0.064 | [3] -0.065 | [4] 0.018 | [5] 0.013

FRMPD3 (UniProt Q5JV73)
inactive: [1] 0.004 | [2] 0.008 | [3] -0.029 | [5] -0.172

Quoted at random: 3 entries already listed, in no set order.
GBA (UniProt P04062)
inactive: [1] 0.015 | [2] 0.018 | [3] 0.051 | [4] 0.042 | [5] -0.033

GALM (UniProt Q96C23)
inactive: [1] 0.077 | [2] -0.037 | [3] 0.077 | [4] -0.024 | [5] -0.028

GALNT6 (UniProt Q8NCL4)
inactive: [1] 0.041 | [2] 0.001 | [3] -0.052 | [4] -0.128 | [5] -0.105

(list continues)

GAGE5 (UniProt Q13069)
inactive: [1] -0.08 | [2] -0.137 | [3] -0.026 | [4] -0.031 | [5] 0

FSCN2 isoform 2 (UniProt O14926)
inactive: [3] -0.045

FZR1 isoform 2 (UniProt Q9UM11)
inactive: [1] -0.244 | [2] 0.126 | [5] 0.039

FRMPD2 (UniProt Q68DX3)
inactive: [3] -0.057 | [5] 0.473

FUT11 (UniProt Q495W5)
inactive: [1] 0.122 | [2] -0.053 | [5] -0.033

GART (UniProt C9JZG2)
inactive: [1] -0.131 | [2] 0.086 | [5] -0.366

FRAT1 (UniProt Q92837)
inactive: [3] -0.011 | [4] -0.194

FUT4 (UniProt P22083)
inactive: [4] -0.019 | [5] -0.104

FZD1 (UniProt Q9UP38)
inactive: [5] 0.037

GDPD5 (UniProt Q8WTR4)
inactive: [3] -0.069

GALNT7 (UniProt H0YAH3)
inactive: [3] 0.203 | [5] 0.114

GDF15 (UniProt Q99988)
inactive: [3] 0.122 | [4] 0.07 | [5] -0.162

FOXO4 (UniProt P98177)
inactive: [1] -0.029 | [2] -0.131 | [5] -0.139

GDE1 (UniProt Q9NZC3)
inactive: [1] -0.085 | [2] -0.076 | [4] -0.067 | [5] 0.394

FOXO3B, A0A2Z4LIS9
inactive: [3] 0.026 | [4] 0.058

GADD45A (UniProt P24522)
inactive: [5] -0.16

GAS6 isoform 1 (UniProt Q14393)
inactive: [1] 0.1 | [2] -0.078 | [5] -0.291

FTSJ1 isoform 2 (UniProt Q9UET6)
inactive: [3] -0.089 | [5] -0.234

GEMIN7 (UniProt Q9H840)
inactive: [1] 0.002 | [2] -0.087 | [5] -0.169

FPGS (UniProt Q05932)
inactive: [4] -0.227

FRAS1 isoform 2 (UniProt Q86XX4)
inactive: [3] -0.04 | [4] -0.021

GABPB2 (UniProt Q8TAK5)
inactive: [1] 0.068 | [2] -0.014 | [4] -0.1 | [5] 0.126

FUT1 (UniProt P19526)
inactive: [5] 0.133

GCA (UniProt P28676)
inactive: [5] -0.095

GAB3 isoform 2 (UniProt Q8WWW8)
inactive: [4] 0.277

GC isoform 3 (UniProt P02774)
inactive: [3] 0.007 | [4] -0.138 | [5] 0.107

GBA2 (UniProt Q9HCG7)
inactive: [1] 0.046 | [2] 0.062 | [4] -0.094 | [5] -0.057

G3BP2 isoform 2 (UniProt Q9UN86)
inactive: [4] -0.248 | [5] 0.014
